The results are deposited in PubChem (AID1224904; Broad Institute, 2016).

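Selective DUX4 reporter inhibition in doxycycline-induced 293T-iDUX4 cells, scored as Gaussia percent activity minus Italica percent activity, after a 24-hour treatment.
The test concentration is not given here.
Percent difference between the Gaussia and Italica channels; more negative values mean more selective suppression of the DUX4 reporter, and higher values mean less activity.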

Values are in %.
How 0% and 100% were set is not given here.
Common to all entries: measured here: selective DUX4 reporter inhibition.
This is a side read-out of the assay, for part of the compounds, not drawn at random.

* COc1ccc(C#Cc2ccc([C@@H]3[C@H]4CN(C(=O)Nc5ccccc5F)CCCCN4[C@H]3CO)cc2)cc1 : Gaussia minus Italica difference 2.237%
* COc1ccc(C#Cc2ccc([C@H]3[C@@H](CO)N4CCCCN(S(=O)(=O)c5cn(C)cn5)C[C@H]34)cc2)cc1 : Gaussia minus Italica difference 5.414%
* COc1ccc2c3c(n(C)c2c1)[C@H](CO)N(Cc1ccc(F)cc1)CC31CN(CC2CCOCC2)C1 : Gaussia minus Italica difference -1.262%
* C[C@H](O)C#Cc1ccc([C@H]2[C@@H](CO)N3CCCCN(S(=O)(=O)c4ccccc4)C[C@H]23)cc1 : Gaussia minus Italica difference 16.44%
* O=C(Cc1cccnc1)N1CC(=O)N2[C@H](CO)[C@@H](c3ccc(/C=C/c4ccccc4)cc3)[C@@H]2C1 : Gaussia minus Italica difference -4.831%
* COc1ccc(C#Cc2ccc([C@@H]3[C@H](CO)N4CCCCN(C(=O)c5ccncc5)C[C@@H]34)cc2)cc1 : Gaussia minus Italica difference -3.87%
* C[C@H]1CN([C@@H](C)CO)C(=O)c2c(c3ccccc3n2C)-c2ccccc2CO[C@H]1CN(C)C(=O)Nc1cccc(F)c1 : Gaussia minus Italica difference 6.208%
* O=C(Cc1cccnc1)N1CCCCN2[C@@H](CO)[C@@H](c3ccc(C#CC4CCCC4)cc3)[C@@H]2C1 : Gaussia minus Italica difference -21.56%
* COc1cccc(NC(=O)Nc2ccc3c(c2)C(=O)N(C)C[C@@H](OC)[C@H](C)CN(CC2CC2)[C@@H](C)CO3)c1 : Gaussia minus Italica difference -15.97%
* O=C(C[C@H]1C[C@@H]2c3cc(NC(=O)Nc4ccc(C(F)(F)F)cc4)ccc3O[C@@H]2[C@@H](CO)O1)NCC1CC1 : Gaussia minus Italica difference -9.08%
* O=C(CCN1CCCCC1)N[C@@H]1CC[C@@H](CC(=O)N2CCC(Cc3ccccc3)CC2)O[C@@H]1CO : Gaussia minus Italica difference -10.13%
* C[C@@H]1CN([C@H](C)CO)C(=O)c2c(c3ccccc3n2C)-c2ccccc2CO[C@H]1CN(C)Cc1ccc2c(c1)OCO2 : Gaussia minus Italica difference -13.04%
* N#C[C@H]1[C@H](c2ccccc2-c2cccc(F)c2)[C@@H](CO)N1C(=O)NC1CCCCC1 : Gaussia minus Italica difference 4.638%
* O=C(Nc1ccccc1)N1CCCCN2[C@H](CO)[C@@H](c3ccc(-c4ccncc4)cc3)[C@@H]2C1 : Gaussia minus Italica difference -0.02579%
* C[C@@H]1CN([C@H](C)CO)C(=O)c2c(c3ccccc3n2C)-c2ccccc2CO[C@@H]1CN(C)Cc1ccc2c(c1)OCO2 : Gaussia minus Italica difference -24.67%
* O=C(Cc1ccccc1)N1CC[C@@H]2[C@H]1c1cc(C#Cc3ccccc3)ccc1N[C@@H]2CO : Gaussia minus Italica difference -0.8868%
* COc1ccc(C#Cc2ccc([C@H]3[C@H]4CN(C(=O)Cc5cccnc5)CCCCN4[C@H]3CO)cc2)cc1 : Gaussia minus Italica difference -14.75%
* COCC#Cc1ccc([C@H]2[C@@H](CO)N3CCCCN(S(=O)(=O)c4ccc(OC)cc4)C[C@@H]23)cc1 : Gaussia minus Italica difference -5.655%
* O=C(Nc1cc(F)ccc1F)N[C@@H]1CC[C@H](CCn2cc(C3CCCCC3)nn2)O[C@@H]1CO : Gaussia minus Italica difference -6.409%
* O=C(Cc1cccnc1)N1CCCCN2[C@H](CO)[C@@H](c3ccc(C#CC4CCCC4)cc3)[C@H]2C1 : Gaussia minus Italica difference 5.565%
* O=C(C[C@@H]1C[C@H]2c3cc(NC(=O)c4ccc5c(c4)OCO5)ccc3O[C@H]2[C@H](CO)O1)NCC1CC1 : Gaussia minus Italica difference -5.051%
* C(=C\c1ccc(C2[C@@H]3CN(Cc4cccnc4)C[C@H]2N3)cc1)/c1ccccc1 (stereo partly specified) : Gaussia minus Italica difference -8.191%
* O=C(C[C@H]1CC[C@@H]2[C@H](COC[C@H](O)CN2Cc2ccc(Oc3ccccc3)cc2)O1)Nc1nccs1 : Gaussia minus Italica difference -12.98%
* COc1ccc2c3c(n(C)c2c1)[C@@H](CO)NCC31CCN(Cc2cc(F)ccc2F)CC1 : Gaussia minus Italica difference 25.65%
* COc1ccc2c3c(n(C)c2c1)[C@@H](CO)N(Cc1ccccc1F)CC31CN(C(=O)C2CCC2)C1 : Gaussia minus Italica difference -21.21%
* O=C(C[C@H]1C[C@H]2c3cc(NC(=O)Nc4ccccc4F)ccc3O[C@H]2[C@H](CO)O1)NCc1ccc(Oc2ccccc2)cc1 : Gaussia minus Italica difference -8.599%
* Cc1cccc(-c2ccc([C@H]3[C@H]4CN(S(=O)(=O)c5cccs5)CCCCN4[C@H]3CO)cc2)c1 : Gaussia minus Italica difference -16.77%
* O=S(=O)(Cc1ccccc1)N1CC2(C1)[C@H](c1ccccc1)[C@@H](CO)N2CC1CCOCC1 : Gaussia minus Italica difference -10.54%
* O=C(C[C@H]1C[C@@H]2c3cc(NC(=O)Nc4ccccc4F)ccc3O[C@@H]2[C@@H](CO)O1)NC1CCCCC1 : Gaussia minus Italica difference -17.38%
* O=C(C[C@H]1CC[C@H]2[C@@H](COC[C@H](O)CN2Cc2cccc(-c3ccncc3)c2)O1)N1CCN(c2ccccc2)CC1 : Gaussia minus Italica difference -4.563%
* O=C(C[C@H]1CC[C@@H]2[C@H](COC[C@@H](O)CN2Cc2nccs2)O1)NCc1ccc(-c2ccccc2)cc1 : Gaussia minus Italica difference -2.35%
* C/C=C/c1ccc(C2[C@@H]3CN(Cc4cc(OC)cc(OC)c4)C[C@H]2N3)cc1 (stereo partly specified) : Gaussia minus Italica difference -10.3%
* O=C(C[C@@H]1CC[C@@H]2[C@H](COC[C@@H](O)CN2C(=O)Nc2ccc(Cl)c(Cl)c2)O1)NCc1ccc(F)cc1 : Gaussia minus Italica difference -4.406%
* COc1ccccc1C#Cc1ccc2c(c1)[C@H]1NCC[C@H]1[C@@H](CO)N2 : Gaussia minus Italica difference -17.86%
* O=C(Nc1ccc(F)cc1)N1CCCCN2[C@H](C1)[C@@H](c1ccc(C#Cc3ccccc3)cc1)[C@@H]2CO : Gaussia minus Italica difference -11.21%
* CN1c2ccc(-c3ccccc3)cc2[C@H]2[C@H](CCN2C(=O)NC2CCCCC2)[C@@H]1CO : Gaussia minus Italica difference 34.19%

Some entries from above, unchanged:

{"structure": "O=C(Cc1cccnc1)N1CCCCN2[C@@H](CO)[C@@H](c3ccc(C#CC4CCCC4)cc3)[C@@H]2C1", "Gaussia minus Italica difference (%)": "-21.56"}
{"structure": "COc1ccc(C#Cc2ccc([C@H]3[C@H]4CN(C(=O)Cc5cccnc5)CCCCN4[C@H]3CO)cc2)cc1", "Gaussia minus Italica difference (%)": "-14.75"}
{"structure": "O=C(C[C@@H]1C[C@H]2c3cc(NC(=O)c4ccc5c(c4)OCO5)ccc3O[C@H]2[C@H](CO)O1)NCC1CC1", "Gaussia minus Italica difference (%)": "-5.051"}